Publication doi:10.1101/2024.02.08.579498 (bioRxiv, 2024)

Tests used:
[1] = target: TrwK/VirB4 (plasmid R388); test: cryo-EM structure
[2] = target: TrwM/VirB3 (plasmid R388); test: cryo-EM structure

Binder | binding [1] | binding [2]
TrwE/VirB10 (protein, UniProt O50337 1-395) MFGRKKGDVIDAGAELERAEQERIEGEYGASELASERRPHTPGARTLLMVLLCVIAVVLVTLSYKAYKVRGVVEDDDAQPQQVVRQVIPGYTPRPIRPEPENVPEPPQPTTSVPAIQPAPVTQPVRPQPTGPREKTPYELARERMLRSGLTAGSGGGEDLPRPQGGDVPAGGLMGGGGGGGELAEKLQPMRLSGSSAGRLGNRDMLITQGTQLDCVLETRLVTTQPGMTTCHLTRDVYSTSGRVVLLDRGSKVVGFYQGGLRQGQARIFVQWSRIETPSGVVINLDSPGTGPLGEAGLGGWIDRHFWERFGGAIMISLIGDLGDWASRQGSRQGNNSIQFSNTANGVESAAAEALRNSINIPPTLYKNQGERVNILVARDLDFSDVYSLESIPTK | binds | binds
TrwG/VirB8 (natural protein, plasmid R388) MSKKQPKPVKAEQLKSYYEESRGLERDLIGEFVKSRKTAWRVATASGLFGLLGMVCGIVGFSQPAPAPLVLRVDNATGAVDVVTTLREHESSYGEVVDTYWLNQYVLNREAYDYNTIQMNYDTTALLSAPAVQQDYYKLFDGSNARDRVLGNKARITVRVRSIQPNGRGQATVRFTTQQHNSNGTVERPQHQIATIGYTYIGAPMRSSDRLLNPLGFQVTSYRADPEILNN | binds | –

These are yes or no findings as the source states them, for the method shown. A result given as binding can be weak or reduced; the word gives no strength.
